Literature values as cited in PMC12810351, “Structure-effect relationship of phenolic compounds on α-amylase inhibition studied by isothermal titration calorimetry” (Current Research in Food Science, 2025).

Experiments:
[1] = test system: α-amylase; design: method as in Narita and Inouye (2011); settings: substrate G2-pNP, pNP UV/Vis; ref Narita and Inouye (2011); cited from earlier work
[2] = test system: α-amylase; design: method as in Kaeswurm et al. (2019); settings: substrate GalG2CNP, CNP UV/Vis; ref Kaeswurm et al. (2019); cited from earlier work
[3] = test system: α-amylase; settings: substrate starch, DNS UV/Vis, cited from earlier work

SMILES: O=C(/C=C/c1ccc(O)c(O)c1)O[C@@H]1C[C@](O)(C(=O)O)C[C@@H](O)[C@H]1O [CA, Chlorogenic acid]
- inhibition type [1]: mixed
- inhibition type [2]: mixed

SMILES: O=c1c(O[C@@H]2O[C@H](CO)[C@@H](O)[C@H](O)[C@H]2O)c(-c2ccc(O)c(O)c2)oc2cc(O)cc(O)c12 [Q-3-glc, quercetin-3-O-glucoside]
- inhibition type ([3]; ref Li et al. (2009)): competitive

SMILES: O=C(CCc1ccc(O)cc1)c1c(O)cc(O)cc1O[C@@H]1O[C@H](CO)[C@@H](O)[C@H](O)[C@H]1O [PHL, phlorizin]
- inhibition type [2]: mixed

SMILES: C[C@@H]1O[C@@H](OC[C@H]2O[C@@H](Oc3c(-c4ccc(O)c(O)c4)oc4cc(O)cc(O)c4c3=O)[C@H](O)[C@@H](O)[C@@H]2O)[C@H](O)[C@H](O)[C@H]1O [rutin, quercetin-3-O-rutinoside]
- inhibition type ([3]; ref Li et al. (2009)): competitive

SMILES: OC[C@H]1O[C@@H](Oc2cc3c(O)cc(O)cc3[o+]c2-c2ccc(O)c(O)c2)[C@H](O)[C@@H](O)[C@@H]1O [CYD-3-glc, cyanidin-3-O-glucoside]
- inhibition type ([3]; ref Sui et al. (2016)): competitive

SMILES: COc1cc(/C=C/C(=O)O)ccc1O [FA, ferulic acid]
- inhibition type [1]: mixed

SMILES: O=C(O[C@@H]1Cc2c(O)cc(O)cc2O[C@@H]1c1cc(O)c(O)c(O)c1)c1cc(O)c(O)c(O)c1 [EGCG, epigallocatechin gallate]
- inhibition type [2]: mixed

Where two headings read alike, the source gives them in different places.
